No constants are given. Whether binding was seen depends on the method and setting. Tags and fused reporters may be left off the sequences shown.
B1: OsTRX y (two-hybrid fusion) (protein, UniProt Q5JMR9 1-168)
chain: MAAFTSTTTAAAASPTPCRPAALVARSSAAPLRSAAPVVVAAGLRRAAAPSRRGATLRVQAKKQTFSSFDELLEKSEKPVLVDFYATWCGPCQYMVPILQEVSEKLGDKIQVVKIDTEKYTSIANRYQIEALPTFIIFKNGKPCHRFEGALPANQLIQQIESALEVAK
B2: OsTRX f (two-hybrid fusion) (protein, UniProt Q8S091 1-187)
chain: MALRLSVSSSHGPASSPAISTCRPAACGRFPALLGGGVASQRRSLTVVSGPETRAVIPVRSSGSDTATVGAEAEAVAVTGQVTEVNKDTFWPIVKSAGPKVVVLDMYTQWCGPCKVMAPKFQEMSEKDQDVVFLKLDCNQDNKSLAKELGIKVVPTFKILKDGKVVKEVTGAKLDELIQAIETVKSS
B3: OsTRX m5 (two-hybrid fusion) (protein, UniProt Q9ZP20 1-172)
chain: MALETCFRAWATLHAPQPPSSGGSRDRLLLSGAGSSQSKPRLSVASPSPLRPASRFACQCSNVVDEVVVADEKNWDSMVLGSEAPVLVEFWAPWCGPCRMIAPVIDELAKEYVGKIKCCKVNTDDSPNIATNYGIRSIPTVLMFKNGEKKESVIGAVPKTTLATIIDKYVSS
B4: OsTRX m1 (two-hybrid fusion) (protein, UniProt Q6H7E4 1-173)
chain: MASSALAVSVAKPAASPPVAVAAVTPQRRLLPQCRGVRAAPVVRLRSGRARGVSVVCAAQGQETSFQVPDVTKSTWQSLVVESELPVLVEFWASWCGPCKMIDPVIGKLSKEYEGKLNCYKLNTDENPDIATQFGIRSIPTMMIFKNGEKKDAVIGAVPESTLVSSIDKYIGR
B5: OsTRX m2 (two-hybrid fusion) (protein, UniProt Q7X8R5 1-180)
chain: MASALAASTAVCSSPLASASASASSARRLRAVPPSRGIRYQALRADSGFAGNRRGGGRGASVVCAVQGQDTSIQVPEVTKSTWQSLVMESELPVLVGYWATWCGPCKMIDPVVGKLSKEYEGKLKCYKLNTDENPDIASQYGVRSIPTMMIFKNGEKKDAVIGAVPESTLIASIEKFVER

Biological target: OsMORF8 (two-hybrid fusion) (rice)
Test: two-hybrid; Matchmaker GAL4 Two-hybrid System 2, GAL4 DNA binding domain and activation domain fusions cotransformed into yeast AH109; growth on SD/-Trp-Leu (DDO) and SD/-Trp-Leu-His-Ade (QDO) plates

binding	Binder
no binding	B1
no binding	B2
no binding	B3
no binding	B4
no binding	B5

Source: PMC8027827
